Reference: patent publication US20130116274A1 (RUTGERS, THE STATE UNIVERSITY OF NEW JERSEY, priority 2011, published 2013)

Test system: C8161 human melanoma xenografts
Test: Immunohistochemistry on excised C8161 xenografts (riluzole/MK2206 study)
Type: in vivo, mice
Details: riluzole 10 mg/kg, MK2206 30 mg/kg, or combination at half the dose of each (p<0.001)
Text: Tissue Analytical Services at the Cancer Institute of New Jersey performed immunohistochemical staining on excised tumor xenografts to detect changes in the number of apoptotic and proliferating cells (activated Caspase 3 and Ki-67, respectively). The number of stained cells was quantified with a Digital Aperio ScanScopeGL system and ImageScope software (v 10.1.3.2028) (Aperio Technologies Inc., Vista, Calif.) according to the manufacturer's protocol.
Excised tumor samples were subjected to immunohistochemistry evaluation with the apoptosis marker, cleaved Caspase-3, and the proliferation index marker, Ki-67.

SMILES: Nc1nc2ccc(OC(F)(F)F)cc2s1 [riluzole]
- number of Ki-67 positive cells: decrease in the number of Ki-67 positive cells
